Results deposited as PubChem BioAssay AID1224830 (NIAID, 2016).

- Purpose: 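Host factors that control LPS-induced TNF expression in human macrophages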 (primary screen)
- Cell system: human THP-1 monocytic leukaemia cells, TNF dual-luciferase reporter clone, PMA-differentiated to macrophage-like cells
- Knock-down reagent: siRNA pool against human genes, 50 nM
- Timing: LPS for 4 h, given about 3 days after siRNA transfection
- Treatment: bacterial LPS (TLR4 ligand), 10 ng/ml
- Read-out: 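TNF firefly reporter luminescence divided by renilla, normalised to the plate median, then turned into a robust z-score for each replicate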
- Reading the numbers: TNF reporter robust z-score: higher = stronger TNF reporter response to LPS
- Hit rule: 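Each well counts as active if its z-score is over 2.8 or under -1.5; controls are left without a call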
In all, the deposit lists about 18,000 reagents; below is a part drawn at random. About 2,900 of all reagents (16%) count as active. 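Calls are made per well; low scores hint the gene aids the LPS response, high scores that it dampens it.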 Repeated entries: four replicate wells of each siRNA pool.

gene	TNF reporter robust z-score	Outcome
AOC3 (amine oxidase copper containing 3)	1.51	inactive
AOC3 (amine oxidase copper containing 3)	2.42	inactive
AOC3 (amine oxidase copper containing 3)	1.5	inactive
AOC3 (amine oxidase copper containing 3)	1.6	inactive
INF2 (inverted formin 2)	-1.19	inactive
INF2 (inverted formin 2)	-1.45	inactive
INF2 (inverted formin 2)	-1.32	inactive
INF2 (inverted formin 2)	-1.23	inactive
MPO (myeloperoxidase)	-0.03	inactive
MPO (myeloperoxidase)	0.4	inactive
MPO (myeloperoxidase)	-0.37	inactive
MPO (myeloperoxidase)	1.58	inactive
MYH4 (myosin heavy chain 4)	-0.6	inactive
MYH4 (myosin heavy chain 4)	-0.03	inactive
MYH4 (myosin heavy chain 4)	-0.39	inactive
MYH4 (myosin heavy chain 4)	1.72	inactive
RPS6 (ribosomal protein S6)	1.43	inactive
RPS6 (ribosomal protein S6)	1.92	inactive
RPS6 (ribosomal protein S6)	1.11	inactive
RPS6 (ribosomal protein S6)	1.85	inactive
TNFSF12-TNFSF13 (TNFSF12-TNFSF13 readthrough)	0.14	inactive
TNFSF12-TNFSF13 (TNFSF12-TNFSF13 readthrough)	0.07	inactive
TNFSF12-TNFSF13 (TNFSF12-TNFSF13 readthrough)	-0.64	inactive
TNFSF12-TNFSF13 (TNFSF12-TNFSF13 readthrough)	-0.15	inactive
VNN1 (vanin 1)	1.15	inactive
VNN1 (vanin 1)	1.68	inactive
VNN1 (vanin 1)	0.33	inactive
VNN1 (vanin 1)	2.34	inactive

8 of these entries, reformatted:
RPS6 (ribosomal protein S6) — TNF reporter robust z-score = 1.85; Outcome = inactive
TNFSF12-TNFSF13 (TNFSF12-TNFSF13 readthrough) — TNF reporter robust z-score = 0.14; Outcome = inactive
TNFSF12-TNFSF13 (TNFSF12-TNFSF13 readthrough) — TNF reporter robust z-score = 0.07; Outcome = inactive
TNFSF12-TNFSF13 (TNFSF12-TNFSF13 readthrough) — TNF reporter robust z-score = -0.64; Outcome = inactive
TNFSF12-TNFSF13 (TNFSF12-TNFSF13 readthrough) — TNF reporter robust z-score = -0.15; Outcome = inactive
VNN1 (vanin 1) — TNF reporter robust z-score = 1.15; Outcome = inactive
VNN1 (vanin 1) — TNF reporter robust z-score = 1.68; Outcome = inactive
VNN1 (vanin 1) — TNF reporter robust z-score = 0.33; Outcome = inactive

The results go on.
gene	TNF reporter robust z-score	Outcome
ACTN4 (actinin alpha 4)	-0.3	inactive
ACTN4 (actinin alpha 4)	0.48	inactive
ACTN4 (actinin alpha 4)	-0.16	inactive
ACTN4 (actinin alpha 4)	0.02	inactive
PLCD4 (phospholipase C delta 4)	0.38	inactive
PLCD4 (phospholipase C delta 4)	-0.78	inactive
PLCD4 (phospholipase C delta 4)	-0.01	inactive
PLCD4 (phospholipase C delta 4)	-0.29	inactive
KCTD12 (potassium channel tetramerization domain containing 12)	-0.64	inactive
KCTD12 (potassium channel tetramerization domain containing 12)	-0.25	inactive
KCTD12 (potassium channel tetramerization domain containing 12)	-0.62	inactive
KCTD12 (potassium channel tetramerization domain containing 12)	-0.68	inactive
PRAMEF4 (PRAME family member 4)	-0.35	inactive
PRAMEF4 (PRAME family member 4)	-0.6	inactive
PRAMEF4 (PRAME family member 4)	-0.42	inactive
PRAMEF4 (PRAME family member 4)	0.95	inactive
TMEM158 (transmembrane protein 158)	-0.95	inactive
TMEM158 (transmembrane protein 158)	-1.68	active
TMEM158 (transmembrane protein 158)	-1.56	active
TMEM158 (transmembrane protein 158)	-1.34	inactive
RIOK2 (RIO kinase 2)	-1.08	inactive
RIOK2 (RIO kinase 2)	-0.8	inactive
RIOK2 (RIO kinase 2)	-0.75	inactive
RIOK2 (RIO kinase 2)	-0.05	inactive
ARHGEF35 (Rho guanine nucleotide exchange factor 35)	-0.81	inactive
ARHGEF35 (Rho guanine nucleotide exchange factor 35)	-0.46	inactive
ARHGEF35 (Rho guanine nucleotide exchange factor 35)	-1.12	inactive
ARHGEF35 (Rho guanine nucleotide exchange factor 35)	-0.73	inactive
MCEE (methylmalonyl-CoA epimerase)	-1.38	inactive
MCEE (methylmalonyl-CoA epimerase)	-0.61	inactive
MCEE (methylmalonyl-CoA epimerase)	-0.55	inactive
MCEE (methylmalonyl-CoA epimerase)	-0.24	inactive
UPF2 (UPF2 regulator of nonsense mediated mRNA decay)	0.04	inactive
UPF2 (UPF2 regulator of nonsense mediated mRNA decay)	0.45	inactive
UPF2 (UPF2 regulator of nonsense mediated mRNA decay)	0.73	inactive
UPF2 (UPF2 regulator of nonsense mediated mRNA decay)	0.28	inactive
MSRB3 (methionine sulfoxide reductase B3)	-2.06	active
MSRB3 (methionine sulfoxide reductase B3)	-0.83	inactive
MSRB3 (methionine sulfoxide reductase B3)	-1.56	active
MSRB3 (methionine sulfoxide reductase B3)	-1.26	inactive
RAB5IF (RAB5 interacting factor)	-0.33	inactive
RAB5IF (RAB5 interacting factor)	-0.97	inactive
RAB5IF (RAB5 interacting factor)	-0.39	inactive
RAB5IF (RAB5 interacting factor)	-0.48	inactive
ZNF792 (zinc finger protein 792)		inactive
THNSL2 (threonine synthase like 2)	3.33	active
THNSL2 (threonine synthase like 2)	-1.42	inactive
THNSL2 (threonine synthase like 2)	0.94	inactive
THNSL2 (threonine synthase like 2)	1	inactive
